Measured values reported in PubChem BioAssay AID493014 (National Center for Advancing Translational Sciences (NCATS), 2011).
The list shows a part of the results. Shown are side measurements of this screen, not its main read-out; they come without a call. The list favours compounds with an active or inconclusive main result. Words in brackets tell the shape of the fitted curve; partial curves, single points and poor fits give uncertain potencies.

Assay: qHTS Assay to Find Inhibitors of Chronic Active B-Cell Receptor Signaling
Conditions: ABC-DLBCL IkBa-CBG/CBR reporter, luminescence ratio (green luciferase fused to IkBa over red control in TMD8 lymphoma cells), 4 h
In short: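 TMD8 human ABC-DLBCL cells with doxycycline-inducible IκBα–green luciferase fusion and unfused red luciferase, in 0.5% FBS medium; compounds up to 46 uM, 4 h at 37C. Green/red luminescence ratio, filter-overlap corrected, fitted to concentration-response curves.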

[1] = measured here: CBR red luminescence, cell number
[2] = measured here: IkBa-CBG green luminescence

Row | SMILES | AC50 [1] | AC50 [2]
1 | COc1ccc(-c2noc(CCC(=O)Nc3cc(Cl)c(OC)cc3OC)n2)cc1 | 0.651 µM [rising, full curve] | –
2 | O=C(CN1CCN(C(=O)c2ccco2)CC1)Nc1ccccc1-c1ccccc1 | 11.2 µM [falling, partial curve] | –
3 | Cc1ccn2c(NC(=O)c3ccco3)c(-c3ccccc3)nc2c1 | 29.1 µM [falling, single point] | –
4 | Cc1cccc(NC(c2ccc(O)cc2)c2ccc3ccc(C)nc3c2O)n1 (stereo unspecified) | 14.6 µM [falling, single point] | –
5 | Cc1ccc2c(c1)c1c3n2CCN(C(=O)CCl)C3CCC1 (stereo unspecified) | 17.8 µM [falling, partial curve, poor fit] | –
6 | O=C(N/N=C/c1ccncc1)c1ccccc1 | 15.8 µM [falling, single point] | –
7 | Cc1ccc(C(=O)c2cc([N+](=O)[O-])ccc2N2CCCCC2)cc1 | – | 6.51 µM [falling, full curve]
8 | Cc1ccc(CNC(=O)CN(C)S(=O)(=O)c2cccc3cccnc23)cc1 | 3.16 µM [rising, full curve, poor fit] | –
9 | O=c1cc(-c2ccc3c(c2)OCO3)oc2ccccc12 | 0.326 µM [rising, full curve, poor fit] | –
10 | CC(C(=O)N=Nc1c(O)n(C)c2ccc(Br)cc12)n1cnc2ccccc2c1=O (stereo unspecified) | 2.51 µM [falling, partial curve, poor fit] | –
11 | COc1ccc(-c2cc(C(F)F)n3ncc(C(=O)N4CCSCC4)c3n2)cc1 | 0.731 µM [rising, full curve, poor fit] | 5.17 µM [falling, partial curve, poor fit]
12 | O=[N+]([O-])c1ccc(-c2ccc(S(=O)(=O)N3CCOCC3)cc2)cc1 | 12.6 µM [rising, single point] | –
13 | Cc1ccccc1OCC(=O)N(Cc1ccc(N(C)C)cc1)C1CCS(=O)(=O)C1 (stereo unspecified) | 15.8 µM [falling, single point] | –
14 | CC(C)(C)OC(=O)NCCCCCc1cn([C@@H](CO)C(=O)NCCCCCCCCCCC(=O)N2CCN(C(=O)OC(C)(C)C)CC2)nn1 | 13 µM [falling, partial curve] | –
15 | C=CCOc1ccc(/C=C/C(=O)OCC(=O)N(C)CC(=O)Nc2ccccc2Cl)cc1 | 2.59 µM [rising, partial curve, poor fit] | –
16 | O=C(C[n+]1ccc2ccccc2c1)c1cccc2ccccc12 | – | 11.2 µM [rising, partial curve, poor fit]
17 | CCn1c(Cc2ccccc2)nnc1SCc1cccc(C(=O)O)c1 | 3.66 µM [rising, partial curve, poor fit] | –
18 | Cc1cccc(Nc2ncc3c(n2)CC(C)CC3=O)c1 (stereo unspecified) | 25.9 µM [falling, partial curve, poor fit] | –
19 | O=C(NC1CCN(Cc2ccccc2)CC1)c1ccc(Cn2c(=S)[nH]c3ccc(N4CCOCC4)cc3c2=O)cc1 | 7.08 µM [falling, partial curve] | –
20 | Cc1ccc(C)c(N2C(=O)CC(N3CCN(Cc4ccc5c(c4)OCO5)CC3)C2=O)c1 (stereo unspecified) | 2.51 µM [falling, full curve, poor fit] | –
21 | CCOC(=O)N/N=C\c1ccc(C)s1 | 23.1 µM [falling, partial curve] | –

Row | SMILES | AC50 [1] | AC50 [2]
22 | O=C(Nc1nc(-c2cccnc2)cs1)c1ccccc1[N+](=O)[O-] | 20 µM [falling, single point] | –
23 | CSc1ncccc1C(=O)NCCc1ccc(Cl)cc1 | 3.55 µM [falling, full curve, poor fit] | –
24 | COc1cccc(/C(C)=N/N=C(\C)c2cccc(OC)c2)c1 | 4.47 µM [rising, full curve, poor fit] | –
25 | O=C(CCS(=O)(=O)c1ccccc1)Nc1ncc([N+](=O)[O-])s1 | 35.5 µM [falling, single point] | –
26 | CC(=O)Oc1ccc(-c2cccc(C(=O)OCC(=O)N(C)c3ccccc3)c2)cc1 | 18.4 µM [falling, single point] | –
27 | O=C(Nc1c(C(=O)O)oc2ccccc12)c1ccc(C(F)(F)F)cc1 | 12.6 µM [falling, single point] | –
28 | CCN(c1ccccc1)S(=O)(=O)c1ccc(C(=O)N(CCCN(C)C)c2nc3cc4c(cc3s2)OCO4)cc1 | 31.6 µM [falling, single point] | –
29 | COc1cccc(NC(=O)CN2C(=O)CSc3nc(C)cc(C)c32)c1 | 0.1 µM [falling, full curve, poor fit] | –
30 | Cc1ccc(NC(=O)c2ccc3nc[nH]c3c2)cc1C | 29.1 µM [falling, single point] | –
31 | NS(=O)(=O)c1ccc(CNC(=O)C(c2ccccc2)c2ccccc2)cc1 | 15.8 µM [falling, partial curve, poor fit] | –
32 | CCC(=O)Nc1nc(-c2ccccc2)nc(SC)c1C(C)=O | 2.82 µM [falling, partial curve] | –
33 | O=[N+]([O-])c1ccc(N2CCN(C(=S)Nc3cccc(F)c3)CC2)cc1 | 35.5 µM [falling, partial curve, poor fit] | –
34 | CCCCC[C@H](O)/C=C/C1=C(CCCCCCC(=O)O)C(=O)CC1 | 0.112 µM [rising, full curve, poor fit] | 8.2 µM [falling, partial curve]
35 | O=C(NCCc1ccc2c(c1)OCCO2)c1ccc(F)cc1 | 7.31 µM [falling, partial curve] | –
36 | O=C(c1cnn(C(=O)c2ccc(O)cc2)c1)c1ccccc1O | 0.398 µM [falling, full curve, poor fit] | –
37 | CS(=O)(=O)c1ccc2nc(NC(=O)Nc3ccccc3F)sc2c1 | 0.501 µM [rising, partial curve, poor fit] | –
38 | COc1cccc(-n2c(C)c3c(OC)cccc(=O)c3c2C)c1 | 3.98 µM [rising, full curve, poor fit] | –
39 | O=C(NCc1cccnc1)/C(=C\c1ccc(-c2cccc(Cl)c2)o1)S(=O)(=O)c1ccccc1 | 25.9 µM [falling, single point] | 25.9 µM [rising, partial curve, poor fit]
40 | CCOC(=O)/C(C#N)=C1\Nc2ccccc2N=C1N(CC(C)C)CC(C)C | 13 µM [falling, partial curve, poor fit] | –
41 | COC(=O)c1c(C)[nH]c(C(=O)C(C)OC(=O)c2c(C)noc2C)c1C (stereo unspecified) | 2.91 µM [rising, partial curve, poor fit] | –
42 | O=C(Nc1ccc(Nc2ccccc2)cc1)Nc1ccccc1Cl | 8.91 µM [falling, partial curve] | –

Row | SMILES | AC50 [1] | AC50 [2]
43 | COc1ccccc1OCc1cc(-c2ccccc2)no1 | 11.2 µM [falling, partial curve] | –
44 | CCOC(=O)C(C(=O)OCC)C(Nc1ccc(Br)cc1)c1ccccc1 (stereo unspecified) | 0.562 µM [falling, full curve, poor fit] | –
45 | CC(=O)N(CCCCN1C(=O)c2ccccc2C1=O)c1ccc(C)cc1 | 1.3 µM [rising, partial curve] | –
46 | Cc1ccc(C=Nc2cccnc2N)cc1 | 11.6 µM [falling, single point] | –
47 | CCOC(=O)CC(=O)Nc1nc2ccccc2s1 | 17.8 µM [falling, single point] | –
48 | CC(=O)c1ccc(N(CC(=O)NC2CCS(=O)(=O)C2)S(=O)(=O)c2ccc(C)cc2)cc1 (stereo unspecified) | 14.6 µM [rising, partial curve, poor fit] | –
49 | Cc1cc(NC(=O)c2cccc(Cl)c2)n[nH]1 | 18.4 µM [falling, single point] | –
50 | CCCc1c(-c2ccc(O)cc2)nn(-c2ccc(O)cc2)c1-c1ccc(O)cc1 | 12.6 µM [falling, partial curve] | –
51 | COc1ccc(C(=O)COC(=O)c2ccco2)cc1 | 3.98 µM [rising, partial curve, poor fit] | –
52 | COc1ccccc1NS(=O)(=O)c1cc(C(=O)N2CCCC2)ccc1F | 0.116 µM [falling, full curve, poor fit] | –
53 | COc1ccccc1OCC(=O)Nc1ccccc1C(=O)NCc1ccco1 | 0.517 µM [falling, full curve, poor fit] | –
54 | CC(C)(C)C1CCC(=NNC(=O)c2ccco2)CC1 (stereo unspecified) | 15.8 µM [falling, partial curve, poor fit] | –
55 | COc1cccc(NC(=O)Cc2ccc(C)cc2)c1 | 32.6 µM [rising, single point] | –
56 | O=C(COc1ccccc1Cl)N(Cc1cccs1)C1CCS(=O)(=O)C1 (stereo unspecified) | 2.82 µM [falling, full curve, poor fit] | –
57 | Cc1onc(-c2ccccc2)c1C(=O)Nc1cccnc1 | 10 µM [falling, partial curve, poor fit] | –
58 | Cc1cc(NC(=O)CSc2nnc(C3CC3)n2-c2ccccc2)no1 | 10 µM [falling, partial curve, poor fit] | –
59 | COCC(=O)OC/C(O)=C(\C#N)c1nc2ccccc2[nH]1 | 35.5 µM [rising, single point] | –
60 | Oc1c(Cl)cc(Cl)c(Cl)c1Cc1c(O)c(Cl)cc(Cl)c1Cl | 14.1 µM [falling, single point] | 1 µM [rising, full curve, poor fit]
61 | O=C(CSc1nnc(CCCN2C(=O)c3cccc4cccc(c34)C2=O)n1-c1ccccc1)NCCCO | 2.91 µM [rising, partial curve] | –
62 | Cc1nc2cc(C(=O)OCC(=O)NC(C)C(C)C)ccc2n1-c1ccccc1 (stereo unspecified) | 2.59 µM [rising, partial curve, poor fit] | –

Part of the list above in order of length of the SMILES, falling:
Row | SMILES | AC50 [1] | AC50 [2]
31 | NS(=O)(=O)c1ccc(CNC(=O)C(c2ccccc2)c2ccccc2)cc1 | 15.8 µM [falling, partial curve, poor fit] | –
34 | CCCCC[C@H](O)/C=C/C1=C(CCCCCCC(=O)O)C(=O)CC1 | 0.112 µM [rising, full curve, poor fit] | 8.2 µM [falling, partial curve]
46 | Cc1ccc(C=Nc2cccnc2N)cc1 | 11.6 µM [falling, single point] | –
